Laboratory results: article PMC10079535
These are yes or no findings as the source states them, for the method shown. In cells and extracts the contact can be indirect. Some results given as binding are weak or reduced against the parent protein; the word gives no strength.

Chains of the proteins cited; added tags and fusions are not shown.
UniProt P49841: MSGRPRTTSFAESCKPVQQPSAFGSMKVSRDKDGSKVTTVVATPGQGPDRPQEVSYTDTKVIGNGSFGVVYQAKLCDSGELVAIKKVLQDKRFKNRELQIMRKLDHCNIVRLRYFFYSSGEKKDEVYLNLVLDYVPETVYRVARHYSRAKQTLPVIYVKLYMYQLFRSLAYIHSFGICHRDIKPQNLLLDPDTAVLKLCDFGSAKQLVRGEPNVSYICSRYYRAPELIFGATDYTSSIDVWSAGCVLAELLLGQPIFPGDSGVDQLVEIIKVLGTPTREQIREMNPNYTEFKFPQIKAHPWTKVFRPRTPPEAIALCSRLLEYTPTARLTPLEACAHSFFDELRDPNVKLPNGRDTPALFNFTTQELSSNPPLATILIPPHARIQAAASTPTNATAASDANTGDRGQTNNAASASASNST
UniProt Q96SB4: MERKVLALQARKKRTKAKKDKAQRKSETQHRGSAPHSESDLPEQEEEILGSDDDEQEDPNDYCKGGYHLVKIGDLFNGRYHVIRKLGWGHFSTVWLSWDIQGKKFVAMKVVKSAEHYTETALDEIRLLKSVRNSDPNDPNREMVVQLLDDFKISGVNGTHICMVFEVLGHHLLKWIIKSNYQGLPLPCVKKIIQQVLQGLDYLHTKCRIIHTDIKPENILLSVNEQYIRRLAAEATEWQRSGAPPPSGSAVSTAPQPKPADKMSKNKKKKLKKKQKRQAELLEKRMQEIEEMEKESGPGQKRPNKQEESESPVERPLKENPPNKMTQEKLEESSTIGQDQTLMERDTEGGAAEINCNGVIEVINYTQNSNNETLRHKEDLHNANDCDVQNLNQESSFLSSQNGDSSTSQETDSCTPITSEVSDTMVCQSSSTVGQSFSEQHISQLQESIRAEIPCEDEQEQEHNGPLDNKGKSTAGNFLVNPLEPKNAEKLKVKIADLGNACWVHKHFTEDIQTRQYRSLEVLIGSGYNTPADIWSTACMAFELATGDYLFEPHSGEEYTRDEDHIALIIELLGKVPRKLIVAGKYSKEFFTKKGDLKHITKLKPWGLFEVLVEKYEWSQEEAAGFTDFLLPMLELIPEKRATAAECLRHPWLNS

Legend:
Flag-GSK3β (human) = Flag-GSK3β (human) (UniProt P49841); assay: co-IP; 293T cells transfected with HA-Vector, HA-SRPK1, Flag-Vector or Flag-GSK3β; IP lysis buffer 25 mM HEPES pH 7.4, 150 mM NaCl, 1% NP-40, 1 mM EDTA
[1] = biological target: Glycogen synthase kinase-3 (GSK3β), endogenous (human (endogenous in NCI-H1975)) (UniProt P49841); assay: co-IP; endogenous proteins of NCI-H1975 lysate; anti-SRPK1 or anti-GSK3β antibody cross-linked to protein A/G-agarose, overnight at 4 °C; IP lysis buffer 25 mM HEPES pH 7.4, 150 mM NaCl, 1% NP-40, 1 mM EDTA; also with cells treated with SPHINX31 (interaction not reduced)

| binding (Flag-GSK3β (human)) | binding [1] | Substance |
| --- | --- | --- |
| binds |  | HA-SRPK1 (from UniProt Q96SB4 1-655) |
|  | binds | Serine-arginine protein kinase 1 (SRPK1), endogenous (from UniProt Q96SB4 1-655) |
